Reference: PubChem BioAssay (NCATS)
Several values for one entry are separate records, joined by “and”; a condition that tells them apart may be missing. Identical values can stand only once. The list shows a part of the results. These are further read-outs of the screen, such as a control signal, another cell line or another target. No call is given for them. Compounds called inactive in the main read-out are mostly missing here. The note in brackets gives the kind of curve behind each potency; many fits are weak.

assay: qHTS assay for small molecule antagonists of peroxisome proliferator-activated receptor gamma signaling (AID 588537); settings: HEK293 PPARg-UAS-bla, beta-lactamase ratio, antagonist mode; measured here: W460 blue channel
In short: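 Fluorescence at 460 and 530 nm (405 nm excitation) reported beta-lactamase cleavage of CCF4 after 2 h room-temperature loading. HEK293 reporter cells in 1% charcoal/dextran-treated FBS had received compound and rosiglitazone for 16 h.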

| SMILES | AC50 |
| --- | --- |
| CN(C)[C@@H]1C(=O)C(C(N)=O)=C(O)[C@@]2(O)C(=O)C3=C(O)c4c(O)cccc4[C@@](C)(O)[C@H]3[C@H](O)[C@@H]12 | 44.7 µM [rising, single point] |
| O=C1C2CC=CCC2C(=O)N1SC(Cl)(Cl)Cl (centres undefined) | 44.7 µM [falling, partial curve, poor fit] and 10 µM [falling, full curve] and 22.4 µM [falling, partial curve, poor fit] |
| COc1cc(OC)c(OC)cc1C=O | 50.1 µM [rising, single point] |
| O=C(Nc1ccccc1)Nc1cnns1 | 50.1 µM [falling, single point] |
| Cc1ccc(N)cc1N | 0.0891 µM [rising, full curve, poor fit] |
| C=CCc1ccc2c(c1)OCO2 | 70.8 µM [rising, single point] |
| O=C(O)C(F)(F)C(F)(F)C(F)(F)C(F)(F)C(F)(F)C(F)(F)C(F)(F)C(F)(F)F | 31.6 µM [falling, partial curve, poor fit] |
| CC(C)OS(C)(=O)=O | 31.6 µM [rising, single point] |
| c1ccc(Nc2ccc3ccccc3c2)cc1 | 50.1 µM [rising, single point] |
| Oc1c(Cl)cccc1Cl | 70.8 µM [rising, single point] |
| COC1=CC(=O)OC(CCc2ccccc2)C1 (centres undefined) | 70.8 µM [rising, single point] |
| CC1(C)C(C(=O)OC(C#N)c2cccc(Oc3ccccc3)c2)C1(C)C (centres undefined) | 15.8 µM [falling, partial curve, poor fit] |
| Nc1ccc2ccccc2c1 | 20 µM [falling, partial curve, poor fit] |
| COP(=O)(OC)O/C(C)=C/C(=O)N(C)C | 0.0141 µM [falling, full curve, poor fit] |
| CC(=O)NNc1ccccc1 | 0.631 µM [falling, full curve] |
| Cc1ccc(C)c2ccccc12 | 0.00251 µM [falling, full curve, poor fit] |
| c1ccc(OP(Oc2ccccc2)Oc2ccccc2)cc1 | 70.8 µM [rising, single point] |
| Nc1ccc(Cc2ccc(N)c(Cl)c2)cc1Cl | 14.1 µM [falling, full curve, poor fit] |
| CC(C)[N+](=O)[O-] | 70.8 µM [rising, single point] |
| CC1(C(=O)Nc2ccc(O)c(Cl)c2Cl)CCCCC1 | 0.0112 µM [falling, full curve, poor fit] |

| SMILES | AC50 |
| --- | --- |
| CCCN(CCC)c1c([N+](=O)[O-])cc(C(F)(F)F)c(N)c1[N+](=O)[O-] | 0.0316 µM [falling, full curve, poor fit] |
| O=[N+]([O-])c1ccc(Nc2ccccc2)cc1 | 35.5 µM [falling, partial curve, poor fit] |
| CC(C)(c1ccc(O)cc1)c1ccc(O)cc1 | 31.6 µM [falling, partial curve] |
| O=C(O[C@@H]1Cc2c(O)cc(O)cc2O[C@@H]1c1cc(O)c(O)c(O)c1)c1cc(O)c(O)c(O)c1 | 0.00126 µM [falling, full curve, poor fit] |
| CCC(C)c1cc([N+](=O)[O-])cc([N+](=O)[O-])c1O (centres undefined) | 28.2 µM [falling, partial curve, poor fit] |
| [O-]/[N+](=N\O)c1ccccc1 | 70.8 µM [rising, single point] |
| O=C1C(Cl)=C(Cl)C(=O)c2ccccc21 | 44.7 µM [falling, partial curve, poor fit] |
| CCOP(=S)(OCC)Oc1ncn(-c2ccccc2)n1 | 0.00126 µM [falling, full curve, poor fit] |
| Oc1ccccc1 | 50.1 µM [rising, single point] and 28.2 nM [falling, full curve, poor fit] |
| CCc1cccc(C)c1N(C(=O)CCl)C(C)COC (centres undefined) | 31.6 µM [falling, partial curve, poor fit] |
| O=C1c2ccccc2C(=O)N1SC(Cl)(Cl)Cl | 39.8 µM [falling, partial curve] |
| CC(C)(C#N)N=NC(C)(C)C#N | 0.0708 µM [falling, full curve, poor fit] |
| C=C(C)CCl | 50.1 µM [rising, single point] |
| CS(=O)(=O)NC(=O)c1cc(Oc2ccc(C(F)(F)F)cc2Cl)ccc1[N+](=O)[O-] | 0.631 µM [falling, full curve, poor fit] |
| S=C=S | 70.8 µM [rising, single point] |
| O=C(Cc1ccccc1)OCc1ccccc1 | 70.8 µM [rising, single point] |
| CC(C)(C)OOC(=O)c1ccccc1 | 63.1 µM [rising, single point] and 70.8 nM [falling, full curve, poor fit] |
| CC(c1ccc(O)cc1)(c1ccc(O)cc1)c1ccc(O)cc1 | 0.00141 µM [falling, full curve, poor fit] |
| Cc1ccccc1O | 0.002 µM [falling, full curve, poor fit] |
